Measurements reported in publication PMC9916828.
These are yes or no findings as the source states them, for the method shown. In cells and extracts the contact can be indirect. Some results given as binding are weak or reduced against the parent protein; the word gives no strength.

Amino acid sequences for entries named in this document (tags omitted). Residues count along the entry.
UniProt P37238: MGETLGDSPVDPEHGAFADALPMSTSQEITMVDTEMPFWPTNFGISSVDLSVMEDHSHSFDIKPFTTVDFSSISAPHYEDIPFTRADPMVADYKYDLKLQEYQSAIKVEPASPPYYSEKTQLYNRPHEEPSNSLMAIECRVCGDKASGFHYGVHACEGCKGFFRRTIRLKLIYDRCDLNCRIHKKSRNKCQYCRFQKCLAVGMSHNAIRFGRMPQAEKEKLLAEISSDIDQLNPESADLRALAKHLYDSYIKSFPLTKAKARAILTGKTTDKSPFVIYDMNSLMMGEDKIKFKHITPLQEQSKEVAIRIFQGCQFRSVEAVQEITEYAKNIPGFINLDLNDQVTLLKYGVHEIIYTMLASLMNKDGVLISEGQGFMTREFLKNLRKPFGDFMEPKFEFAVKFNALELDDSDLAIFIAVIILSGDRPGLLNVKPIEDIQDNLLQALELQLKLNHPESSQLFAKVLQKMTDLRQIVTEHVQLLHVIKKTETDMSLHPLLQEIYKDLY
UniProt P19091: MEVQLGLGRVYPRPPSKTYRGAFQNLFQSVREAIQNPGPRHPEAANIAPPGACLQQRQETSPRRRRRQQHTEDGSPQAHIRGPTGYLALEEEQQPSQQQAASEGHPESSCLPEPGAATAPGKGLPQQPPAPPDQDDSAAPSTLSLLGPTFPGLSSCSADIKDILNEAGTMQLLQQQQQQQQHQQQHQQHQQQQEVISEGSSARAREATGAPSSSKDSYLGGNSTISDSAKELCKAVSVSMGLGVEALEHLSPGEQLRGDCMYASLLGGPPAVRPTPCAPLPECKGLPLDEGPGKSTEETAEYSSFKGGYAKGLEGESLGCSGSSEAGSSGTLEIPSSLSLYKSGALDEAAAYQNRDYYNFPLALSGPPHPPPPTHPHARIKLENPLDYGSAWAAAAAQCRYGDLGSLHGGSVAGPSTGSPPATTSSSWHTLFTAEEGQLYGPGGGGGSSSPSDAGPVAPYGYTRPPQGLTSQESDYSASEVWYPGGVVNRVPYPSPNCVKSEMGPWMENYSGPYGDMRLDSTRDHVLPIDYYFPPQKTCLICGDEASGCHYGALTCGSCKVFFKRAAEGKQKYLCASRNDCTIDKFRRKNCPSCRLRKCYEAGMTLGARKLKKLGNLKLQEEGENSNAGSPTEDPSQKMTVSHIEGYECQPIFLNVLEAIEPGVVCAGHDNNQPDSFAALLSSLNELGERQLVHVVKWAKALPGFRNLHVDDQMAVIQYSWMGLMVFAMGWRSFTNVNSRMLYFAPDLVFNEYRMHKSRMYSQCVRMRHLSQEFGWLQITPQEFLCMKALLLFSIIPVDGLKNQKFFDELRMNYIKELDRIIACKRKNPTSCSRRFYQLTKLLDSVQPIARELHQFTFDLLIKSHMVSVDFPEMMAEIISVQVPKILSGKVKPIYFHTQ
UniProt P19785: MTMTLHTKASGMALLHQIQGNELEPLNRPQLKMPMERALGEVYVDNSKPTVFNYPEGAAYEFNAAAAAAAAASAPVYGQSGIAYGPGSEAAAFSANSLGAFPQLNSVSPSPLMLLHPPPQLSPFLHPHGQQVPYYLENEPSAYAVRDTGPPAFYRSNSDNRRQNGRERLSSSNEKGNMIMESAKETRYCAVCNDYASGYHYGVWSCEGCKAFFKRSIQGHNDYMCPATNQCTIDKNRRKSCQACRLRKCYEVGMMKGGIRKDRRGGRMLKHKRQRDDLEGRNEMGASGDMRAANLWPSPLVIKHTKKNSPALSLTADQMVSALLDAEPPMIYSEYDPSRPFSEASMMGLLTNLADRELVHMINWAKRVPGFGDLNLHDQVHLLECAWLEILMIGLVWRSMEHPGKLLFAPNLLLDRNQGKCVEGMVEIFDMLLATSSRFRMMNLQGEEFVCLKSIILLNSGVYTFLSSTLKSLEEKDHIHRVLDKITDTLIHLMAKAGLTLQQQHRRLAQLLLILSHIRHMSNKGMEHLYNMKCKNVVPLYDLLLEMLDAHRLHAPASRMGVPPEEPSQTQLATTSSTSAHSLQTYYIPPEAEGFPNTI
UniProt P16858: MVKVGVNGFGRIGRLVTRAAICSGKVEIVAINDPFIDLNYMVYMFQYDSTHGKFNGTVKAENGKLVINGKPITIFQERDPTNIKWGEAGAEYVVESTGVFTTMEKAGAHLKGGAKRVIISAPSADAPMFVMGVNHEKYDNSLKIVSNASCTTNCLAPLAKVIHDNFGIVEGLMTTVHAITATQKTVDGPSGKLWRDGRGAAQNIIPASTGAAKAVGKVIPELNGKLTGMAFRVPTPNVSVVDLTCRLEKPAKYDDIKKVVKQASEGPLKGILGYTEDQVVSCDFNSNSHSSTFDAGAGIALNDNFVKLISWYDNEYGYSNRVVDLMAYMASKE
UniProt P63017: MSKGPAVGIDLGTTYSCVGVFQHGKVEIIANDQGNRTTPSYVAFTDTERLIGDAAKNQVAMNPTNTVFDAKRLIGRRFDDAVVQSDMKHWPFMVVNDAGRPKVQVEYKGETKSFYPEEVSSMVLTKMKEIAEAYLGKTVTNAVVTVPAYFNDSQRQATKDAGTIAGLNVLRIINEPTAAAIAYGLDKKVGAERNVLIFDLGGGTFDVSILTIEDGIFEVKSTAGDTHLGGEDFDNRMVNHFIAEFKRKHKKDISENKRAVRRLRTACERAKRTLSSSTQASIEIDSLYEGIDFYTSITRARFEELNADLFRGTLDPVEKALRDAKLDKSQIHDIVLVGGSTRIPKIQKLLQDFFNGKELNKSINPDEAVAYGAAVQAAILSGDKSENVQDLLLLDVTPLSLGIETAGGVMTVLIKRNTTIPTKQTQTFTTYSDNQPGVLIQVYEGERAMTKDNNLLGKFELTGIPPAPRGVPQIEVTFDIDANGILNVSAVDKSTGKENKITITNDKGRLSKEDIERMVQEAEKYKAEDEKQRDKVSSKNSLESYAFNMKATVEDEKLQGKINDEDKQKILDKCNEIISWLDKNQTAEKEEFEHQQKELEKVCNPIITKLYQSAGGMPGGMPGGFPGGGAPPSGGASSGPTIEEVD
UniProt P11627, residues 20-1260: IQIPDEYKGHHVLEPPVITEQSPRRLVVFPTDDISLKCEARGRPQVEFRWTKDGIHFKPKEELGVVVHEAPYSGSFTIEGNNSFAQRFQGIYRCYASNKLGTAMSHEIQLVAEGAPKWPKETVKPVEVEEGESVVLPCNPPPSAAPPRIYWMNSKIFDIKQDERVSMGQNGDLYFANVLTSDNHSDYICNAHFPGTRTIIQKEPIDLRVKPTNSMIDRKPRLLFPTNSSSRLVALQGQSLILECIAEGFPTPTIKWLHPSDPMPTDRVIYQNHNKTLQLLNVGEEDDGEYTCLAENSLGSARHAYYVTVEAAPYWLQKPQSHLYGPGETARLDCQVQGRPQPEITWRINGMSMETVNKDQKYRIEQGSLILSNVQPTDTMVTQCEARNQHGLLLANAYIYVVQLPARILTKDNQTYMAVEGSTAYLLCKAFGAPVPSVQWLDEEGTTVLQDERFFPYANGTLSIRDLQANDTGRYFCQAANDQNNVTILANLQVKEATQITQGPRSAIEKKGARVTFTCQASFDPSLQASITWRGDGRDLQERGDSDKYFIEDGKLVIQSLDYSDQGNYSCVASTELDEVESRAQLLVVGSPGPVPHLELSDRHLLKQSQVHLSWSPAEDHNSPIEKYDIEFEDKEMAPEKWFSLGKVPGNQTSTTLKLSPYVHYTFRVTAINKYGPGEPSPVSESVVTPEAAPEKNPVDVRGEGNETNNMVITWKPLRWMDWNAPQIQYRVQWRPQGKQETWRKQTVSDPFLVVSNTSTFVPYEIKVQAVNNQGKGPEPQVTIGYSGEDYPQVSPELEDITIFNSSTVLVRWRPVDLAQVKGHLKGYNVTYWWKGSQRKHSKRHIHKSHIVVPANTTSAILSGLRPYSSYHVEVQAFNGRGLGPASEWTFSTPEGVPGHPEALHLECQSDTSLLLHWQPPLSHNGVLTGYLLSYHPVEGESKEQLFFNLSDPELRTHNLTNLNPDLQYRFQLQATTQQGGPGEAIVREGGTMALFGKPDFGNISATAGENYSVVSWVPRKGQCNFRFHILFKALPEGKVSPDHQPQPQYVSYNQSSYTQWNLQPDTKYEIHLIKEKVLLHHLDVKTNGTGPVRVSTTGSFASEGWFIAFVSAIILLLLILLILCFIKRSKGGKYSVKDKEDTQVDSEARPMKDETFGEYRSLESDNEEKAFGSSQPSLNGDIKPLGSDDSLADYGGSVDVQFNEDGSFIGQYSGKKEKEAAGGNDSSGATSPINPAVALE

How the values were obtained:
[1] = target: peroxisome proliferator-activated receptor γ (PPARγ), endogenous mouse (mouse (endogenous in brain and cultured neurons)) (UniProt P37238); experiment: proximity ligation; cultured mouse cortical neurons without or with 50 µg/mL tat-P4 peptide, without or with L1 antibody 557; L1 antibody with TOP1 or PPARγ antibody
[2] = target: T1, topoisomerase 1 (TOP1), endogenous mouse (mouse (endogenous in brain and cultured neurons)) (UniProt Q04750); experiment: as above
T1 sequence: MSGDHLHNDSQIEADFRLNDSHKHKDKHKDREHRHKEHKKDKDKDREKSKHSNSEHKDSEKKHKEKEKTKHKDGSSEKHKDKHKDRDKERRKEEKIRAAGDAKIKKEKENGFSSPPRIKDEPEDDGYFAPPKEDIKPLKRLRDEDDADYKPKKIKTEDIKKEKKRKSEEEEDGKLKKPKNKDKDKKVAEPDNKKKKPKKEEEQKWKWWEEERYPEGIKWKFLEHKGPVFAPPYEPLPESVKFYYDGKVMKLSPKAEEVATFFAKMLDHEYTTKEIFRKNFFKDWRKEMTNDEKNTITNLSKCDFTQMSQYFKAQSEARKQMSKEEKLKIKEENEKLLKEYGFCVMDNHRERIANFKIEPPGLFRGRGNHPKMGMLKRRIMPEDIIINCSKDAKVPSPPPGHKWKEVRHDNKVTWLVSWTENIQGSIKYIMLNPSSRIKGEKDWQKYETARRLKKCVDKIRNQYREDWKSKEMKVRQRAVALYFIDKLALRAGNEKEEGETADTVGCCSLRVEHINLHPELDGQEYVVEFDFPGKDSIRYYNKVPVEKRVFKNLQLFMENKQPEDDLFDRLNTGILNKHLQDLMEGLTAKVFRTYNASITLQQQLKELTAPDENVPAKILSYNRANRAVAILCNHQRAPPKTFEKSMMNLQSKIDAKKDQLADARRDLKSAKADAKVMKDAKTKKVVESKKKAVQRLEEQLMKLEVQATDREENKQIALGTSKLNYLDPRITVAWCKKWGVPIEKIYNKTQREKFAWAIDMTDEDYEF

[3] = target: androgen receptor (AR), endogenous mouse (mouse (endogenous in cultured cortical neurons)) (UniProt P19091); experiment: proximity ligation; fixed, permeabilised cultured mouse cortical (and cerebellar) neurons from wild-type or L1 mutant mice; mouse L1 antibody C-2 with goat or rabbit antibodies against the partner, or rabbit L1 antibody ab12399 with mouse antibodies; cells treated with vehicle, 1 µM aprotinin, 50 µg/mL L1 antibody 557 or siRNAs
[4] = target: estrogen receptor α (ERα), endogenous mouse (mouse (endogenous in cultured cortical neurons)) (UniProt P19785); experiment: as above
[5] = target: glyceraldehyde 3-phosphate dehydrogenase (GAPDH), endogenous mouse (mouse (endogenous in cultured cortical neurons)) (UniProt P16858); experiment: as above
[6] = target: heat shock cognate protein 71 kDa (Hsc70), endogenous mouse (mouse (endogenous in cultured cortical neurons)) (UniProt P63017); experiment: as above
[7] = target: T1, topoisomerase 1 (TOP1), endogenous mouse (mouse (endogenous in brain and cultured neurons)); experiment: as above
[8] = target: T2, vitamin D receptor (VDR), endogenous mouse (mouse (endogenous in cultured cortical neurons)) (UniProt P48281); experiment: as above
T2 sequence: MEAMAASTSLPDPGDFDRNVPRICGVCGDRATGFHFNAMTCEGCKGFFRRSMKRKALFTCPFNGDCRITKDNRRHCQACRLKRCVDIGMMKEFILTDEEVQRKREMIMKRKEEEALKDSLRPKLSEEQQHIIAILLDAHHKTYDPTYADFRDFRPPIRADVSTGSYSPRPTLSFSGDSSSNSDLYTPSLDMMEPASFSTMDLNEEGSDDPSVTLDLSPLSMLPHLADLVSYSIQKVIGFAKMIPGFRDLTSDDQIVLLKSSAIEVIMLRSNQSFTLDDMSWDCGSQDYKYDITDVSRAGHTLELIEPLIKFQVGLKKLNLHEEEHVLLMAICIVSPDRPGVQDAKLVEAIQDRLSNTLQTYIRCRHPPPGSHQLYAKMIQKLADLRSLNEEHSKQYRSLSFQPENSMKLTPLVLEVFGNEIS

Measured: binding

cell adhesion molecule L1, endogenous in wild-type mouse neurons (from UniProt P11627 20-1260)
binds: all assays above
